Assay results published in paper PMC4884786.
These are yes or no findings as the source states them, for the method shown. Binding seen in cells or lysates may run through a third protein. A yes stands for co-enrichment or nearness to the bait. Other partners may have been found.

Amino acid sequences for entries named in this document (tags omitted). Residues count along the entry.
UniProt Q9UF56: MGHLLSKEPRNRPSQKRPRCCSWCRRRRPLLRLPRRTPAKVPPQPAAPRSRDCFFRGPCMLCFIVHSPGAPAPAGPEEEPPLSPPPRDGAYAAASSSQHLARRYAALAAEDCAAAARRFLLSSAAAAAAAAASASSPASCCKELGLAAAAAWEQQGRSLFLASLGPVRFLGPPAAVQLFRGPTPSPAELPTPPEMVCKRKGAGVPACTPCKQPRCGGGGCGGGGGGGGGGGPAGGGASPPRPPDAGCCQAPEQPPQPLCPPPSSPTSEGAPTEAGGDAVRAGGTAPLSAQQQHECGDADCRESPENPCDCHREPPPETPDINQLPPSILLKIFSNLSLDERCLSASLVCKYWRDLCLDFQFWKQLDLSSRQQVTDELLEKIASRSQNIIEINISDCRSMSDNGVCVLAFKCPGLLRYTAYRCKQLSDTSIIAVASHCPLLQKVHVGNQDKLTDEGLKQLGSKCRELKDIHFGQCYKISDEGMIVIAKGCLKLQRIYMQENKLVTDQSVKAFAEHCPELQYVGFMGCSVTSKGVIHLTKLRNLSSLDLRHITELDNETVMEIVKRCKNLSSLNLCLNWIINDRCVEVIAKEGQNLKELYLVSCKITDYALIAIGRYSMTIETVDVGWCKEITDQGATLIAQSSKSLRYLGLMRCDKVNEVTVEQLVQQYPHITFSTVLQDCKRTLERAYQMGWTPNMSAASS
UniProt Q04721, residues 26-2471: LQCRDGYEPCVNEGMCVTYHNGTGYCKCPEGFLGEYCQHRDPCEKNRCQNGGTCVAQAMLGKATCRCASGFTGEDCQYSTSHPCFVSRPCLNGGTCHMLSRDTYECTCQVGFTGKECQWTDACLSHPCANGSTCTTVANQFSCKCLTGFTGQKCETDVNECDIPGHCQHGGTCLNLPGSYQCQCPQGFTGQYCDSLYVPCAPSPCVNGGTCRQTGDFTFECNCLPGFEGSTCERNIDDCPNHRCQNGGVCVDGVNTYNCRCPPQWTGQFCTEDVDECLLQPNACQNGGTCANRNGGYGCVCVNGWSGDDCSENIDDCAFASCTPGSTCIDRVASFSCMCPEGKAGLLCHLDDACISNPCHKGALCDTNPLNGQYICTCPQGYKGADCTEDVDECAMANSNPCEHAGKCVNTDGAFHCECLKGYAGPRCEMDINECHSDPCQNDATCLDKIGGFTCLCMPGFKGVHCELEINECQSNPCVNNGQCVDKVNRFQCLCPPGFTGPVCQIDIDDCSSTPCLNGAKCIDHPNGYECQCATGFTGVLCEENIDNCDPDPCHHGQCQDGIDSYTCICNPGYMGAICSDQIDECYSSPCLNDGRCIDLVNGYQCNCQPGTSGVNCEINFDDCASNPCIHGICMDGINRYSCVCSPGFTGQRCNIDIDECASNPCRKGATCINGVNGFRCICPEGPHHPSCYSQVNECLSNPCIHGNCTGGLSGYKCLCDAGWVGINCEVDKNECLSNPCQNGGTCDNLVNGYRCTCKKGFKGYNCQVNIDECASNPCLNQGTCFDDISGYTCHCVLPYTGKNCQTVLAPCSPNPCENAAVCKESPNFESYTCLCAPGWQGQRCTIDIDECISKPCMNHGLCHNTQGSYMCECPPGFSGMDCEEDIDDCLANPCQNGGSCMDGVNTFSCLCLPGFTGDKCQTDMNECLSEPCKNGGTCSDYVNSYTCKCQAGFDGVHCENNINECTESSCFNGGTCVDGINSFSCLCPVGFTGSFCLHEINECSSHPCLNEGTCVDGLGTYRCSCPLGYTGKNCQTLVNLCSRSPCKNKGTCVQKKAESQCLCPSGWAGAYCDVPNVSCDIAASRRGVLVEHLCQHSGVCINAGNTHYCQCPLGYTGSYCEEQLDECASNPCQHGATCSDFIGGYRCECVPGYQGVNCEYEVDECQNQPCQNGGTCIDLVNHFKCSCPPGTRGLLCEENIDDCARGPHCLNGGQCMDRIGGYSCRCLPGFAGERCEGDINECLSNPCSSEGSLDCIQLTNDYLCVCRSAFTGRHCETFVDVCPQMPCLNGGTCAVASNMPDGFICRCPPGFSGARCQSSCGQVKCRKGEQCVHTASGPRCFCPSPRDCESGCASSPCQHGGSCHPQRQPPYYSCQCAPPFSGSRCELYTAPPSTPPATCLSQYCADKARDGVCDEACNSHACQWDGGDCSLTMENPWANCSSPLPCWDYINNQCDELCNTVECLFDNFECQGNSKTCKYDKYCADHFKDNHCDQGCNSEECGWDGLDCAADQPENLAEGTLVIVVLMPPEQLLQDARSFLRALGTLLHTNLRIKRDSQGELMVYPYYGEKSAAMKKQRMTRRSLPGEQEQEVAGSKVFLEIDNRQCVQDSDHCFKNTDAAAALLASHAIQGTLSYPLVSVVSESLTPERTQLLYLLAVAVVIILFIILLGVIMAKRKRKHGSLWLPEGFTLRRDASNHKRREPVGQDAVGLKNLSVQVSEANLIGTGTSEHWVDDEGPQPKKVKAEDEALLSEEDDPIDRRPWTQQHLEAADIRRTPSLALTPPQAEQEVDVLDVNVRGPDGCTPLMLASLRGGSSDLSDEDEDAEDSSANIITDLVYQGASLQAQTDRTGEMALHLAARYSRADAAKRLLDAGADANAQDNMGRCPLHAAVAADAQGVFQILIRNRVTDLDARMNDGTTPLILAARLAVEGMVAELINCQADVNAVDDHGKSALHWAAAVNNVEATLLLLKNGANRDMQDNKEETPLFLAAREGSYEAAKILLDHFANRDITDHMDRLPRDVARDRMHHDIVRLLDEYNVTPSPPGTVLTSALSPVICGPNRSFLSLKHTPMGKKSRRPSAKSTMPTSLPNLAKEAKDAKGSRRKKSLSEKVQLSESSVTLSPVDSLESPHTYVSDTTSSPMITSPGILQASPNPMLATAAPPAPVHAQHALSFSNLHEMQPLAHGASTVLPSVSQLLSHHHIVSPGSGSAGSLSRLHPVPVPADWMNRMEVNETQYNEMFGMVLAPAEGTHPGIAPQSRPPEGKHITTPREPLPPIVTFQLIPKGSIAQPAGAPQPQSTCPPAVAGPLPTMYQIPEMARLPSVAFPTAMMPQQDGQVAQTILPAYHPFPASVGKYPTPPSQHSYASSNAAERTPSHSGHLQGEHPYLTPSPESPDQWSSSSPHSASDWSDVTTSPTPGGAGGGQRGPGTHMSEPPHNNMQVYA
UniProt O14641: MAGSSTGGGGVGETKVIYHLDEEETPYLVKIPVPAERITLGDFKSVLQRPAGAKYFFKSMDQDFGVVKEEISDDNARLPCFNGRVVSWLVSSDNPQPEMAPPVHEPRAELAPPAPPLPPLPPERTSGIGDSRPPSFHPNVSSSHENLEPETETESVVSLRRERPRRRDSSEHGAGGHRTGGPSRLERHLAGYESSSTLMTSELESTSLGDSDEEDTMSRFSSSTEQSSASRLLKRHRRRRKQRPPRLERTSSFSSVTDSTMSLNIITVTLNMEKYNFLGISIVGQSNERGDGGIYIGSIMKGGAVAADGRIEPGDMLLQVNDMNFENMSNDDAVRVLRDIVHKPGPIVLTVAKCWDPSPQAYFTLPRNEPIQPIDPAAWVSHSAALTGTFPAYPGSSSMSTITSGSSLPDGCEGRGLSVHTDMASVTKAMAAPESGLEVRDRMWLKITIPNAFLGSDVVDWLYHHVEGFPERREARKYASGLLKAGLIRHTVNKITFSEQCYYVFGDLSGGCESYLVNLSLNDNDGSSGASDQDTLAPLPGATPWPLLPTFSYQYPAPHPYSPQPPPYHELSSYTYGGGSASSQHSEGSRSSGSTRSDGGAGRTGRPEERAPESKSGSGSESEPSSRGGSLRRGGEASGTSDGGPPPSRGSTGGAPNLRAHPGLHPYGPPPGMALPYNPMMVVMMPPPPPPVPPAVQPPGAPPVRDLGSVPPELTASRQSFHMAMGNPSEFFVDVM
UniProt P63208: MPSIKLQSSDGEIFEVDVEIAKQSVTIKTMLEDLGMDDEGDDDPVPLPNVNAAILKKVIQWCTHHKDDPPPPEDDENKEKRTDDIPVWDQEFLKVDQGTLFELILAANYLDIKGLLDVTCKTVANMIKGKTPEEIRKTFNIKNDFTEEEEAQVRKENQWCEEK
UniProt Q9BY89: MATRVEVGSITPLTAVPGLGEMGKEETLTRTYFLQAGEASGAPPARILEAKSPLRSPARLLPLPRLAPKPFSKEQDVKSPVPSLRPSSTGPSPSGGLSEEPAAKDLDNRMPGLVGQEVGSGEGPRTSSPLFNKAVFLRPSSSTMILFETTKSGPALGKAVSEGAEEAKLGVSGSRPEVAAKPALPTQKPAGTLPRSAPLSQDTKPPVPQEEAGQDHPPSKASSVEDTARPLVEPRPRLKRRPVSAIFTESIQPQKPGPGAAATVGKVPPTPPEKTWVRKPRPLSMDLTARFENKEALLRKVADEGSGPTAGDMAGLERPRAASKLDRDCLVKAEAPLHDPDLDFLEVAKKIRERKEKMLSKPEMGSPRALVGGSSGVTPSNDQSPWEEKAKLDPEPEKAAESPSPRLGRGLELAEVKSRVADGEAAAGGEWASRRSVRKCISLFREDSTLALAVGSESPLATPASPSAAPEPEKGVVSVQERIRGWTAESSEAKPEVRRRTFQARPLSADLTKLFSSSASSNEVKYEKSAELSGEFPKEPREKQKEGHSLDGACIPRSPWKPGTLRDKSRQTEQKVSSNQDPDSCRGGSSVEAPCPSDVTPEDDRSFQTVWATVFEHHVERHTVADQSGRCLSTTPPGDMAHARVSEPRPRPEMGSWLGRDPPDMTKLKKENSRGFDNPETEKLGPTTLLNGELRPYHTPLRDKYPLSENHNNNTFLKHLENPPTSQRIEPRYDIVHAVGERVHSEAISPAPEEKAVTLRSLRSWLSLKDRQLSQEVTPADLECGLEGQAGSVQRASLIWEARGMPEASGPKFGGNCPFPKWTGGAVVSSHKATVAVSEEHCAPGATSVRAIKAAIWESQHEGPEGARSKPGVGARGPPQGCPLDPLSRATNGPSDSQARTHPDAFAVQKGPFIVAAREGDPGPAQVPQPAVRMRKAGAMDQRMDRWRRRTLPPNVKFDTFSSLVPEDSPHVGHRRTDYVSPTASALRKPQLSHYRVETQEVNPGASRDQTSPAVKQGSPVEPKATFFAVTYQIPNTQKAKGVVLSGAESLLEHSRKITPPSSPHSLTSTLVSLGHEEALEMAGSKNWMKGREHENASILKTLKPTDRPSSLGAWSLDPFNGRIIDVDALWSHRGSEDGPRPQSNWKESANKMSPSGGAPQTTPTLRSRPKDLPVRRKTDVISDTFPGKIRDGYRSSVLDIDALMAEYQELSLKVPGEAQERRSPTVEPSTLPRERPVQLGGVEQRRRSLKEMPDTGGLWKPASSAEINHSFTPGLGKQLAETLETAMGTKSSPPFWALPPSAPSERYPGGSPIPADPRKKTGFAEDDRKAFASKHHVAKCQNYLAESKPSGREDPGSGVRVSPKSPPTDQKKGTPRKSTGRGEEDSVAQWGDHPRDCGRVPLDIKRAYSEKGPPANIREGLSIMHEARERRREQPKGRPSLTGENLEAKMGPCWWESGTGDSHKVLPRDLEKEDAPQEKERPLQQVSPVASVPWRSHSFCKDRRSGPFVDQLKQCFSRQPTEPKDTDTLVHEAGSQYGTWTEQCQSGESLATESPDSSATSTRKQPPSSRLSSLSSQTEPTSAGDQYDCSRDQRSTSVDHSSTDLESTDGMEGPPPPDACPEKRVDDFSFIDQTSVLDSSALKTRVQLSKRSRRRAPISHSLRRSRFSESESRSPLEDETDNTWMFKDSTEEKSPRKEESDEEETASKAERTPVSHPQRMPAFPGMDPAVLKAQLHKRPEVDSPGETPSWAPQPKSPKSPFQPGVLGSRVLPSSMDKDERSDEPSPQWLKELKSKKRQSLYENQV

target: 3×Flag‐tagged Fbxl17 (F‐box and leucine‐rich repeat protein 17) (human) (UniProt Q9UF56); experiment: affinity purification with mass spectrometry; 3×Flag‐tagged (Flag/Myc‐tagged) Fbxl17 immunoprecipitated from HEK293T cells, eluted with Flag peptide, LC‐MS/MS; summary of four independent experiments, filtered against 8 analyses of unrelated F‐box proteins

binding	Molecule
binds	Notch 2 (from UniProt Q04721 26-2471)
binds	DSH homolog 2 (from UniProt O14641 1-736)
binds	Skp1 (S‐phase kinase‐associated protein 1) (from UniProt P63208 1-163)
binds	KIAA1671 (from UniProt Q9BY89 1-1806)
binds	TAB 1 (protein, UniProt O43318 1-606) MSTASAASSSSSSSAGEMIEAPSQVLNFEEIDYKEIEVEEVVGRGAFGVVCKAKWRAKDVAIKQIESESERKAFIVELRQLSRVNHPNIVKLYGACLNPVCLVMEYAEGGSLYNVLHGAEPLPYYTAAHAMSWCLQCSQGVAYLHSMQPKALIHRDLKPPNLLLVAGGTVLKICDFGTACDIQTHMTNNKGSAAWMAPEVFEGSNYSEKCDVFSWGIILWEVITRRKPFDEIGGPAFRIMWAVHNGTRPPLIKNLPKPIESLMTRCWSKDPSQRPSMEEIVKIMTHLMRYFPGADEPLQYPCQYSDEGQSNSATSTGSFMDIASTNTSNKSDTNMEQVPATNDTIKRLESKLLKNQAKQQSESGRLSLGASRGSSVESLPPTSEGKRMSADMSEIEARIAATTAYSKPKRGHRKTASFGNILDVPEIVISGNGQPRRRSIQDLTVTGTEPGQVSSRSSSPSVRMITTSGPTSEKPTRSHPWTPDDSTDTNGSDNSIPMAYLTLDHQLQPLAPCPNSKESMAVFEQHCKMAQEYMKVQTEIALLLQRKQELVAELDQDEKDQQNTSRLVQEHKKLLDENKSLSTYYQQCKKQLEVIRSQQQKRQGTS
binds	Praja2 (protein, UniProt O43164 1-708) MSQYTEKEPAAMDQESGKAVWPKPAGGYQTITGRRYGRRHAYVSFKPCMTRHERSLGRAGDDYEVLELDDVPKENSSGSSPLDQVDSSLPSEPIFEKSETEIPTCGSALNQTTESSQSFVAVHHSEEGRDTLGSSTNLHNHSEGEYIPGACSASSVQNGIALVHTDSYDPDGKHGEDNDHLQLSAEVVEGSRYQESLGNTVFELENREAEAYTGLSPPVPSFNCEVRDEFEELDSVPLVKSSAGDTEFVHQNSQEIQRSSQDEMVSTKQQNNTSQERQTEHSPEDAACGPGHICSEQNTNDREKNHGSSPEQVVRPKVRKLISSSQVDQETGFNRHEAKQRSVQRWREALEVEESGSDDLLIKCEEYDGEHDCMFLDPPYSRVITQRETENNQMTSESGATAGRQEVDNTFWNGCGDYYQLYDKDEDSSECSDGEWSASLPHRFSGTEKDQSSSDESWETLPGKDENEPELQSDSSGPEEENQELSLQEGEQTSLEEGEIPWLQYNEVNESSSDEGNEPANEFAQPAFMLDGNNNLEDDSSVSEDLDVDWSLFDGFADGLGVAEAISYVDPQFLTYMALEERLAQAMETALAHLESLAVDVEVANPPASKESIDGLPETLVLEDHTAIGQEQCCPICCSEYIKDDIATELPCHHFFHKPCVSIWLQKSGTCPVCRRHFPPAVIEASAAPSSEPDPDAPPSNDSIAEAP
binds	PPM1G (protein, UniProt O15355 1-546) MGAYLSQPNTVKCSGDGVGAPRLPLPYGFSAMQGWRVSMEDAHNCIPELDSETAMFSVYDGHGGEEVALYCAKYLPDIIKDQKAYKEGKLQKALEDAFLAIDAKLTTEEVIKELAQIAGRPTEDEDEKEKVADEDDVDNEEAALLHEEATMTIEELLTRYGQNCHKGPPHSKSGGGTGEEPGSQGLNGEAGPEDSTRETPSQENGPTAKAYTGFSSNSERGTEAGQVGEPGIPTGEAGPSCSSASDKLPRVAKSKFFEDSEDESDEAEEEEEDSEECSEEEDGYSSEEAENEEDEDDTEEAEEDDEEEEEEMMVPGMEGKEEPGSDSGTTAVVALIRGKQLIVANAGDSRCVVSEAGKALDMSYDHKPEDEVELARIKNAGGKVTMDGRVNGGLNLSRAIGDHFYKRNKNLPPEEQMISALPDIKVLTLTDDHEFMVIACDGIWNVMSSQEVVDFIQSKISQRDENGELRLLSSIVEELLDQCLAPDTSGDGTGCDNMTCIIICFKPRNTAELQPESGKRKLEEVLSTEGAEENGNSDKKKKAKRD
binds	SgK396 (protein, UniProt Q9BXU1 1-1019) MWVQGHSSRASATESVSFSGIVQMDEDTHYDKVEDVVGSHIEDAVTFWAQSINRNKDIMKIGCSLSEVCPQASSVLGNLDPNKIYGGLFSEDQCWYRCKVLKIISVEKCLVRYIDYGNTEILNRSDIVEIPLELQFSSVAKKYKLWGLHIPSDQEVTQFDQGTTFLGSLIFEKEIKMRIKATSEDGTVIAQAEYGSVDIGEEVLKKGFAEKCRLASRTDICEEKKLDPGQLVLRNLKSPIPLWGHRSNQSTFSRPKGHLSEKMTLDLKDENDAGNLITFPKESLAVGDFNLGSNVSLEKIKQDQKLIEENEKLKTEKDALLESYKALELKVEQIAQELQQEKAAAVDLTNHLEYTLKTYIDTRMKNLAAKMEILKEMRHVDISVRFGKDLSDAIQVLDEGCFTTPASLNGLEIIWAEYSLAQENIKTCEYVSEGNILIAQRNEMQQKLYMSVEDFILEVDESSLNKRLKTLQDLSVSLEAVYGQAKEGANSDEILKKFYDWKCDKREEFTSVRSETDASLHRLVAWFQRTLKVFDLSVEGSLISEDAMDNIDEILEKTESSVCKELEIALVDQGDADKEIISNTYSQVLQKIHSEERLIATVQAKYKDSIEFKKQLIEYLNKSPSVDHLLSIKKTLKSLKALLRWKLVEKSNLEESDDPDGSQIEKIKEEITQLRNNVFQEIYHEREEYEMLTSLAQKWFPELPLLHPEIGLLKYMNSGGLLTMSLERDLLDAEPMKELSSKRPLVRSEVNGQIILLKGYSVDVDTEAKVIERAATYHRAWREAEGDSGLLPLIFLFLCKSDPMAYLMVPYYPRANLNAVQANMPLNSEETLKVMKGVAQGLHTLHKADIIHGSLHQNNVFALNREQGIVGDFDFTKSVSQRASVNMMVGDLSLMSPELKMGKPASPGSDLYAYGCLLLWLSVQNQEFEINKDGIPKVDQFHLDDKVKSLLCSLICYRSSMTAEQVLNAECFLMPKEQSVPNPEKDTEYTLYKKEEEIKTENLDKCMEKTRNGEANFDC
binds	ZBTB10 (protein, UniProt Q96DT7 1-871) MSFSEMNRRTLAFRGGGLVTASGGGSTNNNAGGEASAWPPQPQPRQPPPPAPPALQPPNGRGADEEVELEGLEPQDLEASAGPAAGAAEEAKELLLPQDAGGPTSLGGGAGGPLLAERNRRTLAFRGGGGGGLGNNGSSRGRPETSVWPLRHFNGRGPATVDLELDALEGKELMQDGASLSDSTEDEEEGASLGDGSGAEGGSCSSSRRSGGDGGDEVEGSGVGAGEGETVQHFPLARPKSLMQKLQCSFQTSWLKDFPWLRYSKDTGLMSCGWCQKTPADGGSVDLPPVGHDELSRGTRNYKKTLLLRHHVSTEHKLHEANAQESEIPSEEGYCDFNSRPNENSYCYQLLRQLNEQRKKGILCDVSIVVSGKIFKAHKNILVAGSRFFKTLYCFSNKESPNQNNTTHLDIAAVQGFSVILDFLYSGNLVLTSQNAIEVMTVASYLQMSEVVQTCRNFIKDALNISIKSEAPESVVVDYNNRKPVNRDGLSSSRDQKIASFWATRNLTNLASNVKIENDGCNVDEGQIENYQMNDSSWVQDGSPEMAENESEGQTKVFIWNNMGSQGIQETGKTRRKNQTTKRFIYNIPPNNETNLEDCSVMQPPVAYPEENTLLIKEEPDLDGALLSGPDGDRNVNANLLAEAGTSQDGGDAGTSHDFKYGLMPGPSNDFKYGLIPGTSNDFKYGLIPGASNDFKYGLLPESWPKQETWENGESSLIMNKLKCPHCSYVAKYRRTLKRHLLIHTGVRSFSCDICGKLFTRREHVKRHSLVHKKDKKYKCMVCKKIFMLAASVGIRHGSRRYGVCVDCADKSQPGGQEGVDQGQDTEFPRDEEYEENEVGEADEELVDDGEDQNDPSRWDESGEVCMSLDD
